In patent US20250136608A1, “COMPOUNDS CONTAINING A GEM-DIFLUORIDE GROUP AND PREPARATION METHOD AND USE THEREOF” (CGENETECH (SUZHOU, CHINA) CO., LTD, priority 2022, published 2025):
At least one compound was matched to its structure with a doubt left.

System: JAK2
Assay: JAK2 kinase inhibitory activity test (HTRF)
Type: biochemical
Settings: ratio of JAK3 IC50 to JAK2 IC50

N#CCC1(n2cc(-c3ncnc4[nH]ccc34)cn2)CCC(F)(F)CC1 [Compound 1]
JAK2 selectivity (JAK3/JAK2): 86
